This is an account of results in paper PMC3141008.

Results are given in words; binding and its absence hold for the method and conditions named. In cells and extracts the contact can be indirect. Some entries that bind do so weakly or less than the wild type. Tags and fused reporters may be left off the sequences shown.

T1: NUCLEAR RNA POLYMERASE D1 (NRPD1), carboxy-terminal 3×Flag tagged (Arabidopsis thaliana) (UniProt Q9LQ02)
T1 sequence: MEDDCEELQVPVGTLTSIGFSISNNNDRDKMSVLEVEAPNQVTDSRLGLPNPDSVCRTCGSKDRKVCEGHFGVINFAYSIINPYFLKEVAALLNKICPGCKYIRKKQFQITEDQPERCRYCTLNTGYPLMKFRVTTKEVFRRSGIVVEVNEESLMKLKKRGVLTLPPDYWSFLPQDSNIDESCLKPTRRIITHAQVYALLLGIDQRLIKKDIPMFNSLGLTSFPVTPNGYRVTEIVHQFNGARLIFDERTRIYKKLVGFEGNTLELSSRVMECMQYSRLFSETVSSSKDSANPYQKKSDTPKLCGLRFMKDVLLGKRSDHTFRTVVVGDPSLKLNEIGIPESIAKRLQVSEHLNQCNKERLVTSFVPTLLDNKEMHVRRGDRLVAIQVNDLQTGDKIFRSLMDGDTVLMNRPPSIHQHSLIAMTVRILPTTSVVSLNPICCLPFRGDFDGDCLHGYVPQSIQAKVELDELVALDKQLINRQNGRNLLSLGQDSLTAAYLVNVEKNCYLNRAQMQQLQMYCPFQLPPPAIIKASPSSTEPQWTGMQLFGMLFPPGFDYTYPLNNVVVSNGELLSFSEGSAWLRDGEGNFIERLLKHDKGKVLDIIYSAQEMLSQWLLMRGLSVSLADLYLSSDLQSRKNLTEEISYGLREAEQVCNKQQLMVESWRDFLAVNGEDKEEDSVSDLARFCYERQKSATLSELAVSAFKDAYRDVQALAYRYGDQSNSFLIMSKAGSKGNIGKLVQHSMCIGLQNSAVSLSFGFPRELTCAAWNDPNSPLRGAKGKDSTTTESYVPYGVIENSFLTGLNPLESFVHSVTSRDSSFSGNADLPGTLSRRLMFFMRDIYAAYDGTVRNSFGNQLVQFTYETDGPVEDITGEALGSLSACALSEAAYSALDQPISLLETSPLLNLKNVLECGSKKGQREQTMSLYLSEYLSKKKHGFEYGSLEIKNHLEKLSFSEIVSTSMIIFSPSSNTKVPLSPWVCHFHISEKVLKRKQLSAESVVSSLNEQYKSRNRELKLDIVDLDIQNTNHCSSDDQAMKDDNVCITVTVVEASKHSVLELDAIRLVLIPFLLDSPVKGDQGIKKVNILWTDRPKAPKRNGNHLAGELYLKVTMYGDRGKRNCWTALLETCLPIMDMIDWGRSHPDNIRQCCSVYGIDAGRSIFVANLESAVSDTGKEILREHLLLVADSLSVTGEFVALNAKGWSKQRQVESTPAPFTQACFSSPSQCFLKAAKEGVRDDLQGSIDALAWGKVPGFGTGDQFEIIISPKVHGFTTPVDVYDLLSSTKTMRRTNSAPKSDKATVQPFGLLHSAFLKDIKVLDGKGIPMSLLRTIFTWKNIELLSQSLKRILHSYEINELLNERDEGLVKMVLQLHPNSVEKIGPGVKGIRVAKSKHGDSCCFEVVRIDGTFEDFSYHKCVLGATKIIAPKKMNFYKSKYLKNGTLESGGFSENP

B1: CLASSY 1 (CLSY1), amino-terminal BLRP-3×HA tagged (protein, UniProt Q9M297 1-1256)
chain: MKRKHYFEFNHPFNPCPFEVFCWGTWKAVEYLRIENGTMTMRLLENGQVLDDIKPFQRLRIRSRKATLIDCTSFLRPGIDVCVLYQRDEETPEPVWVDARVLSIERKPHESECLCTFHVSVYIDQGCIGLEKHRMNKVPVLVGLNEIAILQKFCKEQSLDRYYRWRYSEDCSSLVKTRLNLGKFLPDLTWLLVTSVLKNIVFQIRTVHEKMVYQIVTDEDCEGSSSSLSAMNITVEDGVVMSKVVLFNPAEDTCQDSDVKEEIEEEVMELRRSKRRSGRPERYGDSEIQPDSKDGWVRMMPYRYNIWNVSSDDDDEEEDCEDDKDTDDDLYLPLSHLLRKKGSKKGFSKDKQREIVLVDKTERKKRKKTEGFSRSCELSVIPFTPVFEPIPLEQFGLNANSLCGGVSGNLMDEIDKYRSKAAKYGKKKKKKIEMEEMESDLGWNGPIGNVVHKRNGPHSRIRSVSRETGVSEEPQIYKKRTLSAGAYNKLIDSYMSRIDSTIAAKDKATNVVEQWQGLKNPASFSIEAEERLSEEEEDDGETSENEILWREMELCLASSYILDDHEVRVDNEAFHKATCDCEHDYELNEEIGMCCRLCGHVGTEIKHVSAPFARHKKWTTETKQINEDDINTTIVNQDGVESHTFTIPVASSDMPSAEESDNVWSLIPQLKRKLHLHQKKAFEFLWKNLAGSVVPAMMDPSSDKIGGCVVSHTPGAGKTFLIIAFLASYLKIFPGKRPLVLAPKTTLYTWYKEFIKWEIPVPVHLLHGRRTYCMSKEKTIQFEGIPKPSQDVMHVLDCLDKIQKWHAQPSVLVMGYTSFLTLMREDSKFAHRKYMAKVLRESPGLLVLDEGHNPRSTKSRLRKALMKVDTDLRILLSGTLFQNNFCEYFNTLCLARPKFVHEVLVELDKKFQTNQAEQKAPHLLENRARKFFLDIIAKKIDTKVGDERLQGLNMLRNMTSGFIDNYEGSGSGSGDVLPGLQIYTLLMNSTDVQHKSLTKLQNIMSTYHGYPLELELLITLAAIHPWLVKTTTCCAKFFNPQELLEIEKLKHDAKKGSKVMFVLNLVFRVVKREKILIFCHNIAPIRLFLELFENVFRWKRGRELLTLTGDLELFERGRVIDKFEEPGGQSRVLLASITACAEGISLTAASRVIMLDSEWNPSKTKQAIARAFRPGQQKVVYVYQLLSRGTLEEDKYRRTTWKEWVSSMIFSEEFVEDPSQWQAEKIEDDVLREIVEEDKVKSFHMIMKNEKASTGG
B2: RNA-… RNA POLYMERASE 2 (RDR2), carboxy-terminal epitope tagged (protein, UniProt O82504 1-1133)
chain: MVSETTTNRSTVKISNVPQTIVADELLRFLELHLGEDTVFALEIPTTRDNWKPRDFARVQFTTLEVKSRAQLLSSQSKLLFKTHNLRLSEAYDDIIPRPVDPRKRLDDIVLTVGFPESDEKRFCALEKWDGVRCWILTEKRRVEFWVWESGDCYKIEVRFEDIIETLSCCVNGDASEIDAFLLKLKYGPKVFKRVTVHIATKFKSDRYRFCKEDFDFMWIRTTDFSGSKSIGTSTCFCLEVHNGSTMLDIFSGLPYYREDTLSLTYVDGKTFASAAQIVPLLNAAILGLEFPYEILFQLNALVHAQKISLFAASDMELIKILRGMSLETALVILKKLHQQSSICYDPVFFVKTQMQSVVKKMKHSPASAYKRLTEQNIMSCQRAYVTPSKIYLLGPELETANYVVKNFAEHVSDFMRVTFVEEDWSKLPANALSVNSKEGYFVKPSRTNIYNRVLSILGEGITVGPKRFEFLAFSASQLRGNSVWMFASNEKVKAEDIREWMGCFRKIRSISKCAARMGQLFSASRQTLIVRAQDVEQIPDIEVTTDGADYCFSDGIGKISLAFAKQVAQKCGLSHVPSAFQIRYGGYKGVIAVDRSSFRKLSLRDSMLKFDSNNRMLNVTRWTESMPCFLNREIICLLSTLGIEDAMFEAMQAVHLSMLGNMLEDRDAALNVLQKLSGENSKNLLVKMLLQGYAPSSEPYLSMMLRVHHESQLSELKSRCRILVPKGRILIGCMDEMGILEYGQVYVRVTLTKAELKSRDQSYFRKIDEETSVVIGKVVVTKNPCLHPGDIRVLDAIYEVHFEEKGYLDCIIFPQKGERPHPNECSGGDLDGDQFFVSWDEKIIPSEMDPPMDYAGSRPRLMDHDVTLEEIHKFFVDYMISDTLGVISTAHLVHADRDPEKARSQKCLELANLHSRAVDFAKTGAPAEMPYALKPREFPDFLERFEKPTYISESVFGKLYRAVKSSLAQRKPEAESEDTVAYDVTLEEAGFESFIETAKAHRDMYGEKLTSLMIYYGAANEEEILTGILKTKEMYLARDNRRYGDMKDRITLSVKDLHKEAMGWFEKSCEDEQQKKKLASAWYYVTYNPNHRDEKLTFLSFPWIVGDVLLDIKAENAQRQSVEEKTSGLVSI
B3: RNA-DIRECTED DNA …ON 4 (RDM4)/… IN MERISTEM … 4 (DMS4) (protein, UniProt Q8GYP3 1-346)
chain: MDGVGESSTQNEVEEKPVIVRVKRKVGQSLLDAFWLEINERPLKRPTLDFSKLSISDSGERGPSVAEDVKPKKVLVRHLETVTDSETTADIIHSFFESDHNEKSCSKGKFEERKIAFKKDNRKEQRLTKSVQKQQIASENARFEQIWRSRKGNKEGIHEKCHFFDVIRVDTEERRDNAQEFTSLEDQKMLASFLPLLRECIPTAAEEIEADIQSSHTEEYVYDYYAVNEEMDISEDSSKNQFPLVIVEDEEEFCDGSDESDYDSEDSNAEDHPKTDYPEEEEEEEEEDDDDDDDDESEEEKSEASDESDDEETSKRHVRSVLGDDEFDDYAEDVYGYSESDEEFES
B4: SAWADEE HOMEODOMAIN HOMOLOG 1 (SHH1), carboxy-terminal epitope tagged (protein, UniProt Q9XI47 1-258)
chain: MAASDDSSHYFTEFTLSEIVDMENLYKELGDQSLHKDFCQTVASTFSCSVNRNGKSSITWKQVQIWFQEKLKHQSQPKSKTLPSPPLQIHDLSNPSSYASNASNATFVGNSTFVQTRKGKASDLADLAFEAKSARDYAWYDVSSFLTYRVLRTGELEVRVRFSGFDNRHDEWVNVKTSVRERSIPVEPSECGRVNVGDLLLCFQEREDQALYCDGHVLNIKRGIHDHARCNCVFLVRYELDNTEESLGLERICRRPEE

The experiment deals with T1, NUCLEAR RNA POLYMERASE D1 (NRPD1), carboxy-terminal 3×Flag tagged (Arabidopsis thaliana). Briefly: co-IP; 0.5-1 g tissue of parental lines and F1 plants expressing both epitope tagged proteins (for RDM4: Col or tagged-NRPD1 plants, endogenous RDM4 detected with anti-RDM4); lysis buffer; Myc agarose or M2 Flag agarose, 2 hours at 4°C; western blot.
As to B1, the binding result was “binds”.

Regarding B2, the binding result is reported as “binds”.

Consider B3, for which the binding result was “binds”.

On to B4, for which the binding result is on record as “binds”.
